# These are yes or no findings as the source states them, for the method shown. Binding seen in cells or lysates may run through a third protein. Here binding means that the protein was enriched with, or labelled near, the bait; the list need not be complete. For part of these data: No binding means not detected with the bait. For part of these data: Tags and fused reporters may be left off the sequences shown.
# Sequences of proteins named here, by UniProt entry; tags and fusion partners are left off. Residues count along the entry.
# UniProt Q07955: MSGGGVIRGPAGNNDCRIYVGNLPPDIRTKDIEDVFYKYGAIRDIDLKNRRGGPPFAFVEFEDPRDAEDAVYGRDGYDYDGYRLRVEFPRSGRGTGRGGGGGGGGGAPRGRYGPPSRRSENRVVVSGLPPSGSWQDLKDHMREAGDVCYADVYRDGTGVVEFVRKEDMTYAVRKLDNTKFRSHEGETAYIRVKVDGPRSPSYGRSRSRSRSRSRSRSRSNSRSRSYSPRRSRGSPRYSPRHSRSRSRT
# UniProt Q14676: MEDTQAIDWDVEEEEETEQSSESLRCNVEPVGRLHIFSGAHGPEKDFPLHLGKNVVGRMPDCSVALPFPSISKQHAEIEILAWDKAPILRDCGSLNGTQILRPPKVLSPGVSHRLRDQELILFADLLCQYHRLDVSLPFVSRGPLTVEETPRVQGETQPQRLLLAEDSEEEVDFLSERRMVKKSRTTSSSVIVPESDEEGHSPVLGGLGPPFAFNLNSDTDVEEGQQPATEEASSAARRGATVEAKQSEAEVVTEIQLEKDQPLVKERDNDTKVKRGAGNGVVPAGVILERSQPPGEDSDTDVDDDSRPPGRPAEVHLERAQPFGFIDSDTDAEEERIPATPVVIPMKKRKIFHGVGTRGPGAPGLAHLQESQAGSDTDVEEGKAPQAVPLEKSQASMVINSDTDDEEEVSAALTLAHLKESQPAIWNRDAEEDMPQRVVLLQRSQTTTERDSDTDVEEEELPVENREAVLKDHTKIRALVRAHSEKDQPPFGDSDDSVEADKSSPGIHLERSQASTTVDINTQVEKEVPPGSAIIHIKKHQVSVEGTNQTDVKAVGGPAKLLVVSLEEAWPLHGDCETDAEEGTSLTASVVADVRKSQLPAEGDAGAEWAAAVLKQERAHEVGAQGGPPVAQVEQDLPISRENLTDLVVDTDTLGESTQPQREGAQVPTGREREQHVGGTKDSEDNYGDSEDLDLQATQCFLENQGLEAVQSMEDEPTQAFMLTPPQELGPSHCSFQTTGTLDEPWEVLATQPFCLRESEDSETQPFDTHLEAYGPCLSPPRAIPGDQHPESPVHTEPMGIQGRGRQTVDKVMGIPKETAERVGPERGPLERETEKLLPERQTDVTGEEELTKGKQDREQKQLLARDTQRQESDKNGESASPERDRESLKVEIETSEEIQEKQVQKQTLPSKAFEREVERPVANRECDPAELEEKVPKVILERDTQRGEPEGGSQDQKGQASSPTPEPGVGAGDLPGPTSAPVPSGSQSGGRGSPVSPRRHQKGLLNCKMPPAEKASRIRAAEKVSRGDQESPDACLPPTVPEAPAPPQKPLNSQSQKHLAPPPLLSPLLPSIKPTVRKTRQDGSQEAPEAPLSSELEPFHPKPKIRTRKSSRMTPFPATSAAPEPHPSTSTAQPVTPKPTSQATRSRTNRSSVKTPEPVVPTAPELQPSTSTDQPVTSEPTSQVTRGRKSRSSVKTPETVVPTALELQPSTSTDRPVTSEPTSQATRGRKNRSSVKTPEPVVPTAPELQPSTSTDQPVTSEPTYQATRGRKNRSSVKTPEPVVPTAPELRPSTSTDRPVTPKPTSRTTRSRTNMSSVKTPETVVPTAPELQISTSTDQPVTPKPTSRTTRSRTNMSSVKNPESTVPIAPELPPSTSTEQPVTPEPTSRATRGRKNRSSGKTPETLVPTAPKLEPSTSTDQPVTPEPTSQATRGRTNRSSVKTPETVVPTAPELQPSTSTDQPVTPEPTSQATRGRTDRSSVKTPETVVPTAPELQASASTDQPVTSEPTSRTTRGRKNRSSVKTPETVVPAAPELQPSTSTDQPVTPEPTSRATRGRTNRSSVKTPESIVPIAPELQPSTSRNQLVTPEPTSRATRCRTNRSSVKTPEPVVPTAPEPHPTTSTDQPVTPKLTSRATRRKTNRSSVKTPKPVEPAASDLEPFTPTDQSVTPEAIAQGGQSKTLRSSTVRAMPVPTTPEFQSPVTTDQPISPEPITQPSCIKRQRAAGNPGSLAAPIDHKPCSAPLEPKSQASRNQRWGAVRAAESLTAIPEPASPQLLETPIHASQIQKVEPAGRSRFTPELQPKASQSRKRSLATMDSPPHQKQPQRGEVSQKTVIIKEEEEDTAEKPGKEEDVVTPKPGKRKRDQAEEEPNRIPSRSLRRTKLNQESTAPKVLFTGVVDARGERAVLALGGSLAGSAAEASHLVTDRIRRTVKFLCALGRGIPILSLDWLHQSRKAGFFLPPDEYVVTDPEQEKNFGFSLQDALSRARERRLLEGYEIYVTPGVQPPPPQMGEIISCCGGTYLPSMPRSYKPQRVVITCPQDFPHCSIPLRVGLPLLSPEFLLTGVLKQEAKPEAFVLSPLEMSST
# UniProt Q13443, residues 29-819: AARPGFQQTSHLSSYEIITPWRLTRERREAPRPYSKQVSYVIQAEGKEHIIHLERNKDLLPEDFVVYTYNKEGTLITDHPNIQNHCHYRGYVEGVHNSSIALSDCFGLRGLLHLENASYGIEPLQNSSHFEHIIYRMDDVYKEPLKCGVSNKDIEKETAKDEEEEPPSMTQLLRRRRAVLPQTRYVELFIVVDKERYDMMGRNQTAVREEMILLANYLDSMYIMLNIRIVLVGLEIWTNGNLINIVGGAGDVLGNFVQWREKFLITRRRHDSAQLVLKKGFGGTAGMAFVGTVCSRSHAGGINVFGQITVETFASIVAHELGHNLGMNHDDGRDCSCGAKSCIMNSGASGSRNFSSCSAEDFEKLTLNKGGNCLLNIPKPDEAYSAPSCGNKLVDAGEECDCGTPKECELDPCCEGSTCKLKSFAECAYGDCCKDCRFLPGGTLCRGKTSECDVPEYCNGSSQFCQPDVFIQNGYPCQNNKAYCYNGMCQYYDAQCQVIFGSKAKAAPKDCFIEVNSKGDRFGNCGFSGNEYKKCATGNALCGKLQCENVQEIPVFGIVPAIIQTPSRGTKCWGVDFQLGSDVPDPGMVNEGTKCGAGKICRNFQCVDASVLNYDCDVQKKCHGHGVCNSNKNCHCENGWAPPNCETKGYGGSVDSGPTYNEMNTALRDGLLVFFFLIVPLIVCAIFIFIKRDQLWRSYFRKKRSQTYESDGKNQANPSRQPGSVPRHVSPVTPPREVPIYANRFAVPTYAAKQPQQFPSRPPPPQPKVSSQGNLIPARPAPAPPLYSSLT
# Molecular target: T1, Inhibitor of differentiation 4 (ID4) (human (endogenous in HCC70, MDA-MB-468, HCC1954, OVKATE and patient-derived xenografts)) (UniProt P47928)
# T1 sequence: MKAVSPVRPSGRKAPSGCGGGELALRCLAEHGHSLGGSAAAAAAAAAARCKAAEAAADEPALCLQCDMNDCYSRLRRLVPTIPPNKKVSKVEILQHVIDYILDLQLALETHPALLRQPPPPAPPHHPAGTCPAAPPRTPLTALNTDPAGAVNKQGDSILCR
# Assay: affinity purification with mass spectrometry; RIME: cells (HCC70, MDA-MB-468, HCC1954, OVKATE) cross-linked with paraformaldehyde for 7 min, sonicated, IP with anti-ID4 against control IgG, on-bead trypsin digest, nanoLC-MS/MS; biological triplicate
row,Molecule,binding
1,SRSF1 (from UniProt Q07955 1-248),no binding
2,mediator of DNA damage checkpoint 1 (MDC1) (from UniProt Q14676 1-2089),binds
3,disintegrin and metalloprotease domain 9 protein (ADAM9) (from UniProt Q13443 29-819),binds
4,"Histidine Rich Glycoprotein (HRG) (protein, UniProt P04196 19-525) VSPTDCSAVEPEAEKALDLINKRRRDGYLFQLLRIADAHLDRVENTTVYYLVLDVQESDCSVLSRKYWNDCEPPDSRRPSEIVIGQCKVIATRHSHESQDLRVIDFNCTTSSVSSALANTKDSPVLIDFFEDTERYRKQANKALEKYKEENDDFASFRVDRIERVARVRGGEGTGYFVDFSVRNCPRHHFPRHPNVFGFCRADLFYDVEALDLESPKNLVINCEVFDPQEHENINGVPPHLGHPFHWGGHERSSTTKPPFKPHGSRDHHHPHKPHEHGPPPPPDERDHSHGPPLPQGPPPLLPMSCSSCQHATFGTNGAQRHSHNNNSSDLHPHKHHSHEQHPHGHHPHAHHPHEHDTHRQHPHGHHPHGHHPHGHHPHGHHPHGHHPHCHDFQDYGPCDPPPHNQGHCCHGHGPPPGHLRRRGPGKGPRPFHCRQIGSVYRLPPLRKGEVLPLPEANFPSFPLPHHKHPLKPDNQPFPQSVSESCPGKFKSGFPQVSMFFTHTFPK",binds
5,"spectrin repeat containing nuclear envelope family member 3 (SYNE3) (protein, UniProt Q6ZMZ3 1-975) MTQQPQDDFDRSVEDAQAWMKAVQDQLQVNDNTQGPRAALEARLWETEKICQLEPEGRVRVDLVLRMAEALLACCPGDQKPGILARLKDIKAQWEETVTYMTHCHSRIEWVWLHWSEYLLARDEFYRWFQKMMVTLEPHIELQLGLKEKQWQLSHAQVLLHNVDNQAVLLDRLLEEAASLFNRIGDPSVDEDAQKRMKAEYDAVKAKAQKRVDLLEQVAREHEEYQAGVDEFQLWLKAVVEKVNGCLGRNCKLPITQRLSTLQDIAKDFPRGEESLETLEEQSAGVIRNTSPLGAEKITGELEEMRKVLEKLRALWEEEEERLRGLLRSRGAWEQQIKQLEAELSEFRMVLQRLAQEGLQPAAKAGTEDELVAHWRRYSATRAALASEEPRVDRLQAQLKELIVFPHNLKPLSDSVIATIQEYQSLKVKSARLRNAAAVELWQHFQRPLQDLQLWKALAQRLLEVTASLPDLPSLHTFLPQIEAALMESSRLKELLTMLQLKKDLLIGIFGQERATALLEQVAGSMRDRDLLHNSLLQRKSKLQSLLAQHKDFGAAFEPLQRKLLDLQVRVQAEKGLQRDLPGKQAQLSRLQGLQEEGLDLGAQMEAARPLVQENPNHQHKMDQLSSDFQALQRSLEDLVDRCRQSVQEHCTFSHQLLELRQWIVVTTQKLEAHRGEAGPGDAESQEAEFERLVAEFPEKEAQLSLVEAQGWLVMEKSSPEGAAVVQEELRELAESWRALRLLEESLLSLIRNWHLQRMEVDSGKKMVFTNNIPKSGFLINPMDPIPRHRRRANLLQEEEGSHEDFSQLLRNFGQWLQVENSKLVRIIAMRTSTAEDLRTRKSKLQELEARVPEGQHLFENLLRLGPARGTSDELEDLRYQWMLYKSKLKDSGHLLTQSSPGEPTGFQKTRRWRGLGSLFRRACCVALPLQLLLLLFLLLLFLLPIREEDRSCTLANNFARSFTLMLRYNGPPPT",binds

# Molecular target: T1, Inhibitor of differentiation 4 (ID4) (human (endogenous in HCC70, MDA-MB-468, HCC1954, OVKATE and patient-derived xenografts))
# Assay: affinity purification with mass spectrometry; RIME on PDX tumours HCI001, HCI002, HCI009, cross-linked in 1% formaldehyde at 4 °C for 20 min; anti-ID4 against IgG; discovery MS and SWATH label-free quantification on the same sample
row,Molecule,binding
1,mediator of DNA damage checkpoint 1 (MDC1) (from UniProt Q14676 1-2089),binds
